For some of these results: No signal at the amounts used counts as a negative. For some of these results: At least one verdict was read from the data and is not stated in words by the source. Where a protein sequence is shown, tags need not be part of it. For some of these results: Construct, isoform or probe ends are uncertain for at least one entry. For some of these results: A weaker result is weaker than the reference pair of the same experiment.
Columns and labels:
[1] = target: T1, MBP-AND-1 1017-1129 (human) (UniProt O75717); test: EMSA; settings: protein excess, text: HMG box not involved in DNA binding; EMSA: 25 mM HEPES pH 7.2, 100 mM KCl, 5 mM MgCl2, TCEP, 3 uM DNA, 4 C; recombinant protein; residues 1017-1129; protein details: His6-MBP; label: 5' 6FAM; single-stranded DNA
T1 sequence (looked up): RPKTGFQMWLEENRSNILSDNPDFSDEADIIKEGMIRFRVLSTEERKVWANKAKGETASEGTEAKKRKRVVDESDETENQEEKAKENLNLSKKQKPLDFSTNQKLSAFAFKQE

[2] = target: T2, MBP-AND-1 HMG box (human) (UniProt O75717); test: EMSA; settings: protein excess, text: HMG box not involved in DNA binding; EMSA: 25 mM HEPES pH 7.2, 100 mM KCl, 5 mM MgCl2, TCEP, 3 uM DNA, 4 C; recombinant protein; residues 1017-1076; protein details: His6-MBP; label: 5' 6FAM; single-stranded DNA
T2 sequence (looked up): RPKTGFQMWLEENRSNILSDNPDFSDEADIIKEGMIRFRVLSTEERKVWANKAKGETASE

MBP-AND-1CT (human) = target: T3, MBP-AND-1CT (human) (UniProt O75717); test: EMSA; settings: 5 mM MgCl2; EMSA: 25 mM HEPES pH 7.2, 100 mM KCl, 5 mM MgCl2, TCEP, 3 uM DNA, 4 C; recombinant protein; residues 837-1129; protein details: His6-MBP; label: 5' 6FAM; single-stranded DNA
T3 sequence (looked up): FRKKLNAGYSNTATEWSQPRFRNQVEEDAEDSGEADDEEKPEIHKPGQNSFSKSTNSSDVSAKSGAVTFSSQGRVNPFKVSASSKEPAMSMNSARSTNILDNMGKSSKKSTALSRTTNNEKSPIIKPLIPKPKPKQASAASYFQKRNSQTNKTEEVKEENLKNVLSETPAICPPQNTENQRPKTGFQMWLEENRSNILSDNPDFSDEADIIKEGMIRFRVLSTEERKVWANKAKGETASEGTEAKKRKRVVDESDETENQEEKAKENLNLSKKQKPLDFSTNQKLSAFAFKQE

AND-1 SepB+CT (human) = target: T4, AND-1 SepB+CT (human) (UniProt O75717); test: EMSA; settings: 2:1 protein:DNA; EMSA: 25 mM HEPES pH 7.2, 100 mM KCl, 5 mM MgCl2, TCEP, 3 uM DNA, 4 C; recombinant protein; residues 316-1129; label: 5' 6FAM; single-stranded DNA
T4 sequence (looked up): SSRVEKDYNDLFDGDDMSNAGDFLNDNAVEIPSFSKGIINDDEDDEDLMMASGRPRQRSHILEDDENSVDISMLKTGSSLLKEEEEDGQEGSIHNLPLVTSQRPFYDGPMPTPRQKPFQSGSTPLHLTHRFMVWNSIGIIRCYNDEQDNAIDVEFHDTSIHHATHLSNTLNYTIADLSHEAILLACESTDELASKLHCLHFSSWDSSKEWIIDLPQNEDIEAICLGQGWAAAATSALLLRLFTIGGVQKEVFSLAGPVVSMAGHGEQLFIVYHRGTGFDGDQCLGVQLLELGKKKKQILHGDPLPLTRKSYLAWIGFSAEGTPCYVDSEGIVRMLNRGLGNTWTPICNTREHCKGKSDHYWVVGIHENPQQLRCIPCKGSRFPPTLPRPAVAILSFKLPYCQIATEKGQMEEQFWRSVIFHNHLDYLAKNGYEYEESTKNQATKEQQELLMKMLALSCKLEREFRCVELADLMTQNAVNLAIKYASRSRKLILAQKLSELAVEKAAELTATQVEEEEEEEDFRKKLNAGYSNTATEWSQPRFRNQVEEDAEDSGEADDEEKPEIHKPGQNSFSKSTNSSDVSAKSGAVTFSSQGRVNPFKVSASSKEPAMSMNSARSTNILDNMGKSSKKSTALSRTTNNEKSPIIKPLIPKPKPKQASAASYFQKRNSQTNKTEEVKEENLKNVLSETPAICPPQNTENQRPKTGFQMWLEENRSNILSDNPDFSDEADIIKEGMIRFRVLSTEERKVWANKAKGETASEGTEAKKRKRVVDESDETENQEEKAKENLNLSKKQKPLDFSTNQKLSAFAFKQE

[3] = target: T5, AND-1 full length (human) (UniProt O75717); test: fluorescence anisotropy; settings: value printed only in figure panel; FP: 25 mM HEPES pH 7.2, 100 mM KCl, 0.5 mM TCEP, 20 nM DNA, 25 C; recombinant protein; residues 1-1129; protein details: His10-myc; label: 5' 6FAM on strand 1
T5 sequence (looked up): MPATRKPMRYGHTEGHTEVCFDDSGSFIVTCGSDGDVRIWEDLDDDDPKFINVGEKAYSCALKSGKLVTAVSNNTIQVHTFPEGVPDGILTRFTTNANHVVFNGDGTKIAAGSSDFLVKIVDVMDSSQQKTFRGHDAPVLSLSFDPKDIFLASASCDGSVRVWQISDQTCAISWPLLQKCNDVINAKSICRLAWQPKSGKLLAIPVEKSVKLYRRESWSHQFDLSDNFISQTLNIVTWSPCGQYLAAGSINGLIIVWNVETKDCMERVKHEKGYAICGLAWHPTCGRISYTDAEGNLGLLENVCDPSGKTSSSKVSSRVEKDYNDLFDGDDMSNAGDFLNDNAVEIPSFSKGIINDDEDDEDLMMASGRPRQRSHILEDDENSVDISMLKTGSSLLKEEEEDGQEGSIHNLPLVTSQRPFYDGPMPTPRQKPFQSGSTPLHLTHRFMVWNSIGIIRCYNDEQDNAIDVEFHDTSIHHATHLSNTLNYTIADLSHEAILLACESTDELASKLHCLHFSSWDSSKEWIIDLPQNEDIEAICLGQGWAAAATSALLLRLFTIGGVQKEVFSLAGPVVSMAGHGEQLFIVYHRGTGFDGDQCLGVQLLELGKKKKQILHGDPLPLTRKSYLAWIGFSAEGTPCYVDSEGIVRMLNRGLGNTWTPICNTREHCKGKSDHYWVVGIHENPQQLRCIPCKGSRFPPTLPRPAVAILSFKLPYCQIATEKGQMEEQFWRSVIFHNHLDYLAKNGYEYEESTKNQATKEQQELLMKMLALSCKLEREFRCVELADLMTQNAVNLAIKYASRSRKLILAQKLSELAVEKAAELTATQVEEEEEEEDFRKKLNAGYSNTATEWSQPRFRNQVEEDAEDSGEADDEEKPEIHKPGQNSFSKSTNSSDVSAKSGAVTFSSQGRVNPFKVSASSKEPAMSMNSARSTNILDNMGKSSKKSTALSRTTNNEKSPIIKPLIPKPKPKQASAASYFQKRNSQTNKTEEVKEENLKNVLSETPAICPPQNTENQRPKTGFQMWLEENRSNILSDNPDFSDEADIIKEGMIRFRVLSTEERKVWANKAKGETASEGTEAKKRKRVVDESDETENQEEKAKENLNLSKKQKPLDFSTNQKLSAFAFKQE

[4] = target: T5, AND-1 full length (human); test: EMSA; settings: 5 mM MgCl2, stable complex, lower apparent affinity than ssDNA and fDNA; EMSA: 25 mM HEPES pH 7.2, 100 mM KCl, 5 mM MgCl2, TCEP, 3 uM DNA, 4 C; recombinant protein; residues 1-1129; protein details: His10-myc; label: 5' 6FAM on strand 1

Which results are given for “ATGGTGTGTGTAGGTTAATGTGAGGAGGAGAGGTGAAGAAGGAGGAGAGAAGAAGGAGGC [ssDNA 60mer]”?
binding result [1]: no binding; binding result [2]: no binding

Does “CTTCCGAGACCTTGCCCATCCCGTAGAACCTGTTATCCAA [ssDNA 40mer (oligo A)]” bind (MBP-AND-1CT (human))?
Result: binds

Does “CTTCCGAGACCTTGCCCATCCCGTAGAACCTGTTATCCAA [ssDNA 40mer (oligo A)]” bind (AND-1 SepB+CT (human))?
Result: binds

What does the source list for “CTTCCGAGACCTTGCCCATCCCGTAGAACCTGTTATCCAA (double strand) [dsDNA (oligos A+B)]”?
binding result [3]: binds; binding result [4]: binds more weakly

Does “CTTCCGAGACCTTGCCCATCCCGTAGAACCTGTTATCCAA / GCTACCTTTGAACCTACGATGATGGGCAAGGTCTCGGAAG [fDNA (oligos A+C)]” bind [3]?
Result: binds

Reference: article PMC5717350, “The human CTF4-orthologue AND-1 interacts with DNA polymerase α/primase via its unique C-terminal HMG box” (Open Biology, 2017)
